PubChem BioAssay AID504764 – Drosophila RNAi Screening Center | 2011
Screen: 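Genome-wide screen for regulators of Notch-driven gene expression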 (primary screen). Cells: Drosophila Kc167 cells. Reagents: long dsRNA against Drosophila genes. Duration: about 5 days (4 days dsRNA, then 24 h after transfection). Challenge: transfection of constitutively active membrane-tethered Notch lacking the extracellular domain, read 24 h later. Measured: 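Firefly luciferase from an E(spl)m3 reporter with active Notch, plus control-promoter and uninduced reporter wells for normalisation; unnormalised counts, duplicate wells a and b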. Reading the numbers: induced reporter light, run 1, well a and induced reporter light, run 1, well b: higher = more light from the Notch target reporter with active Notch; control promoter light, run 1, well a and control promoter light, run 1, well b: higher = more light from the viral control promoter (cell number, transfection, viability); uninduced reporter light, run 1, well a: higher = more light from the Notch target reporter without active Notch. Active means: 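Wells with low control signal or poorly matching duplicates excluded; duplicates averaged; per source plate, z beyond ±2 for induced/control log2 ratio or beyond ±1.8 for induced/uninduced marks a hit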. Meaning of the calls: active = modifier hit (raised or lowered Notch signal); inactive = not a hit.
The screen tested about 22,000 reagents; this is an unselected part of those with a known target gene and a result. In the full data, 403 (1.9%) were called active. 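Unnormalised raw counts per well; ratio z-scores behind the hit calls and whether each hit raises or lowers signal are not deposited.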 A plus sign joins genes that one reagent is predicted to hit. Reagent sequences are not shown. The record does not give: the amount of reagent.

Gene	DRSC id	induced reporter light, run 1, well a	induced reporter light, run 1, well b	control promoter light, run 1, well a	control promoter light, run 1, well b	uninduced reporter light, run 1, well a	call
CG15653	DRSC04244	46240	39250	28790	43015	2940	inactive
CG31404	DRSC15497	2.21e5	1.88e5	2.18e5	2.11e5	10792	active
CG8569	DRSC07214	1.22e5	1.21e5	97640	91215	7640	inactive
Sodq	DRSC15924	1.77e5	2.13e5	2.34e5	2.20e5	13825	inactive
CG32112	DRSC09815	1.83e5	1.63e5	2.46e5	2.07e5	10370	inactive
RpS15	DRSC07151	20255	15755	20560	17610	1580	inactive
CG9777	DRSC20208	1.38e5	1.11e5	1.45e5	1.12e5	14755	inactive
Ulp1	DRSC19339	84905	75650	63555	42355	5985	inactive
Rel	DRSC16819	1.14e5	1.34e5	83525	83780	9565	inactive
CG11970	DRSC14157	1.34e5	1.16e5	1.35e5	99895	8820	inactive
CG8613	DRSC07222	1.88e5	1.54e5	1.96e5	1.64e5	13550	inactive
nes	DRSC11375	83605	83885	70000	63970	4290	inactive
CG6654	DRSC16084	1.16e5	1.14e5	1.10e5	1.05e5	11725	inactive
CG30275	DRSC04163	1.98e5	2.13e5	2.14e5	1.98e5	15978	inactive
CG15369	DRSC18041	1.14e5	1.20e5	1.52e5	1.54e5	7528	inactive
dgt1	DRSC15301	74380	82190	1.27e5	1.10e5	5295	inactive
Stlk	DRSC22687						inactive
CG16959	DRSC10230	1.14e5	1.20e5	66055	75145	9680	inactive
CG4452	DRSC10422	1.18e5	97260	74800	32930	10090	inactive
Hex-t1	DRSC16701	1.52e5	1.59e5	1.92e5	1.92e5	11755	inactive
Amph	DRSC07578	74060	83165	65655	52170	7030	inactive
CG2887	DRSC18235	1.10e5	94670	1.35e5	96350	7590	inactive
Klp59C	DRSC04348	1.97e5	1.88e5	1.90e5	1.80e5	13995	inactive
Ugt303A1	DRSC15641	85425	93475	98015	80335	3030	inactive
DIP-iota	DRSC02140	1.70e5	1.35e5	1.75e5	1.68e5	9570	inactive
CG13339	DRSC06373	99465	1.16e5	1.63e5	1.70e5	10285	inactive
CG12496	DRSC18602	1.26e5	1.01e5	2.31e5	2.31e5	9800	inactive
CG30103	DRSC06894	1.54e5	1.06e5	1.56e5	1.67e5	9670	inactive
Pbgs	DRSC09718	57440	48675	81175	61835	3720	inactive
Tpc2	DRSC04322	2.11e5	2.02e5	1.68e5	1.89e5	14360	inactive
Cap-D3 + tomb	DRSC02347	1.88e5	1.55e5	2.39e5	1.59e5	12420	inactive
CG15701	DRSC06572	1.27e5	1.25e5	1.08e5	98780	7470	inactive
CG9106	DRSC20154	1.52e5	1.39e5	2.24e5	2.13e5	11315	inactive
CG12299	DRSC02158	2.41e5	2.05e5	2.19e5	2.53e5	26510	inactive
Sfxn1-3	DRSC12183	1.44e5	1.17e5	1.10e5	1.06e5	8090	inactive
CG31287	DRSC13138	1.56e5	1.28e5	1.97e5	1.69e5	8855	inactive
M7BP	DRSC05932	2.15e5	1.91e5	1.92e5	1.91e5	18235	inactive
RpL18A	DRSC07538	10970	7565	7570	8540	1510	inactive
Art6	DRSC16583	2.69e5	2.67e5	2.51e5	2.45e5	21035	inactive
CG12259	DRSC14486	1.20e5	1.38e5	1.76e5	1.57e5	12010	inactive
CG9150	DRSC03148	88980	68420	86885	1.01e5	5195	inactive
Tango10	DRSC19807	1.83e5	2.26e5	3.38e5	2.46e5	13040	inactive
CtsK1	DRSC08742	2.05e5	2.22e5	3.29e5	2.64e5	7690	inactive
Mgtor	DRSC05958	82845	98715	71560	77290	7615	inactive
Nach	DRSC07478	1.06e5	80465	1.06e5	1.32e5	10885	inactive
mamo	DRSC19370	64980	65210	74655	73020	9330	inactive
sip2	DRSC03154	41920	40150	49065	37080	3288	inactive
Gr68a	DRSC10803	2.38e5	2.45e5	3.62e5	2.63e5	12688	inactive
SmydA-8	DRSC18797	95105	1.13e5	1.98e5	1.49e5	8460	inactive
SmydA-8	DRSC22064						inactive

Already shown: entries from further up.
Gene	DRSC id	induced reporter light, run 1, well a	induced reporter light, run 1, well b	control promoter light, run 1, well a	control promoter light, run 1, well b	uninduced reporter light, run 1, well a	call
DIP-iota	DRSC02140	1.70e5	1.35e5	1.75e5	1.68e5	9570	inactive
CG13339	DRSC06373	99465	1.16e5	1.63e5	1.70e5	10285	inactive
CG12496	DRSC18602	1.26e5	1.01e5	2.31e5	2.31e5	9800	inactive
CG30103	DRSC06894	1.54e5	1.06e5	1.56e5	1.67e5	9670	inactive
